These results are taken from article PMC7565148.

No constants are given. Whether binding was seen depends on the method and setting. Binding seen in cells or lysates may run through a third protein. Where a sequence is shown, tags or fusion partners need not be part of it.

This test addresses T1, glutathione S-transferase (GST)–WARS1 fusion protein (not stated (human or mouse cDNA cloned)) (UniProt P32921).
T1 sequence: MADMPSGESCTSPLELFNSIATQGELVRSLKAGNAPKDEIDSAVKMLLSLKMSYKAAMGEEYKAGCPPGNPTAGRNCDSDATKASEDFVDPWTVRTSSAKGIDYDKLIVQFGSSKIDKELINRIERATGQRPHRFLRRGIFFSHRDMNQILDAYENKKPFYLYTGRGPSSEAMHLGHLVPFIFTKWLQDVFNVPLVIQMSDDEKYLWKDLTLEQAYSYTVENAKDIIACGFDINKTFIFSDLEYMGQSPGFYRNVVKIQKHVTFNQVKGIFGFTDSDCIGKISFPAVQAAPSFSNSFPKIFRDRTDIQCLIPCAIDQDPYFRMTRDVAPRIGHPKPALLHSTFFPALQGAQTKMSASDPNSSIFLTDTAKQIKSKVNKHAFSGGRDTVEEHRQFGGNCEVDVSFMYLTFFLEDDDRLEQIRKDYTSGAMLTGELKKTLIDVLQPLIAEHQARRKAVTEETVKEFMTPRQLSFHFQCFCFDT
Nature of the test: pull-down; J774.1 total cell lysates incubated with GST or GST-WARS1 for 2 h at 4 °C in cell lysis buffer; washed four times with lysis buffer; bound protein detected by immunoblot with an anti-TREM-1 antibody; only the target purified. Background: A western blot detects proteins with antibodies after separation by electrophoresis.

B1: triggering receptor expressed on myeloid cells (TREM)-1 (receptor, UniProt Q9JKE2 21-230)
chain: AIVLEEERYDLVEGQTLTVKCPFNIMKYANSQKAWQRLPDGKEPLTLVVTQRPFTRPSEVHMGKFTLKHDPSEAMLQVQMTDLQVTDSGLYRCVIYHPPNDPVVLFHPVRLVVTKGSSDVFTPVIIPITRLTERPILITTKYSPSDTTTTRSLPKPTAVVSSPGLGVTIINGTDADSVSTSSVTISVICGLLSKSLVFIILFIVTKRTFG
As for B1, the binding entry is recorded as “no binding”.
